The supplement of paper PMC10849652
This is one part of the list.

The chains behind the UniProt entries cited, without tags or fusion partners. Where a name states a change or a piece, a line headed by the entry shows the natural chain unless it says otherwise.
UniProt P55347: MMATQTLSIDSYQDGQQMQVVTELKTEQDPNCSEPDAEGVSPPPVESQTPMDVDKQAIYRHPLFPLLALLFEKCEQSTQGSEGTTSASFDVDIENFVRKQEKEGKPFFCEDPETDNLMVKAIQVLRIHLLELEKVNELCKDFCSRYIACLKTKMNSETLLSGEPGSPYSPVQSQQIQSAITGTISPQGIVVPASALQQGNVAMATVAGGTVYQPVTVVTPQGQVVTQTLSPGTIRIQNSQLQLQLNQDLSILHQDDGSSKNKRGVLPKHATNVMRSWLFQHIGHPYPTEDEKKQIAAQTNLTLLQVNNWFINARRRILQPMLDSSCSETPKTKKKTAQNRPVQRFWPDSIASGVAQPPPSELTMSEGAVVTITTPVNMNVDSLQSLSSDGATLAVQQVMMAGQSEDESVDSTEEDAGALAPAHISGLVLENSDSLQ
UniProt P14618, whole entry, looked up: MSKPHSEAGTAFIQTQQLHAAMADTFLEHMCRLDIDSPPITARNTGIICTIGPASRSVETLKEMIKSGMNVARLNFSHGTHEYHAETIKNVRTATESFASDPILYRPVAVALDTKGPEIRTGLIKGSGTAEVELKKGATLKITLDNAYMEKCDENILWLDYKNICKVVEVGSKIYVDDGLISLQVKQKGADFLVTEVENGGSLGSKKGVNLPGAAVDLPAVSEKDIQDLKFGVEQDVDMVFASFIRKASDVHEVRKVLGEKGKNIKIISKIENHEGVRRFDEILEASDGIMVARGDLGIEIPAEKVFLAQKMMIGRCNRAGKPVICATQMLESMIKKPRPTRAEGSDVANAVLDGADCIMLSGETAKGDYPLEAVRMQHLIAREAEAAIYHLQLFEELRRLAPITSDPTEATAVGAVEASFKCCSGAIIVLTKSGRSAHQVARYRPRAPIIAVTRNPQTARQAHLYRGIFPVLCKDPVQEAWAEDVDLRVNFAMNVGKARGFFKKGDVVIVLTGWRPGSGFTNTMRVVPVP
UniProt O00329: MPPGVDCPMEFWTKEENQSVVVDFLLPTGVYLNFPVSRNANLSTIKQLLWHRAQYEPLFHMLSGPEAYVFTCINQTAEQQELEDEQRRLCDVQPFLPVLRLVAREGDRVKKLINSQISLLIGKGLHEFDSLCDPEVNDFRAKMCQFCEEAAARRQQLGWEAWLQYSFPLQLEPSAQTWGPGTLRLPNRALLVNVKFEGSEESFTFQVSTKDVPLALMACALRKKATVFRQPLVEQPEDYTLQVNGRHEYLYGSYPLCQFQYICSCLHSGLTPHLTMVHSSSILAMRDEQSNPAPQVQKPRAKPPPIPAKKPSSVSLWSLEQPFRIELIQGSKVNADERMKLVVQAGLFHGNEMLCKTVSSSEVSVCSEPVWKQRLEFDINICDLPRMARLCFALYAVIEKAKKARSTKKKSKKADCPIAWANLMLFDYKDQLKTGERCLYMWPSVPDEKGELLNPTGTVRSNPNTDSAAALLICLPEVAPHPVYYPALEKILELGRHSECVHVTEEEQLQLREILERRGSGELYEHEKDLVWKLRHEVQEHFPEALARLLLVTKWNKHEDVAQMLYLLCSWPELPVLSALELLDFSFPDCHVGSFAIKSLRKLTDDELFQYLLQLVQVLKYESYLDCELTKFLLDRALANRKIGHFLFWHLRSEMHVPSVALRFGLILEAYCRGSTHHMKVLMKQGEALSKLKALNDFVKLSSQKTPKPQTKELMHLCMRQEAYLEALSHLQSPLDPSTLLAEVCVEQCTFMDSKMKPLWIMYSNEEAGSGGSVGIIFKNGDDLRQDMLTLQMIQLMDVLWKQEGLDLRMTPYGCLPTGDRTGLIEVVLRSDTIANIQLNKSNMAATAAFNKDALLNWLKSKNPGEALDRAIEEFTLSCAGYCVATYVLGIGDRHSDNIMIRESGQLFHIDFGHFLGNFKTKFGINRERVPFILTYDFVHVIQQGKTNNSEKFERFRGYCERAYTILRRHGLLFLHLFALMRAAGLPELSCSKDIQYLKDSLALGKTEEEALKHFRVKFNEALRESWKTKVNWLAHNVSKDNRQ
UniProt P37287: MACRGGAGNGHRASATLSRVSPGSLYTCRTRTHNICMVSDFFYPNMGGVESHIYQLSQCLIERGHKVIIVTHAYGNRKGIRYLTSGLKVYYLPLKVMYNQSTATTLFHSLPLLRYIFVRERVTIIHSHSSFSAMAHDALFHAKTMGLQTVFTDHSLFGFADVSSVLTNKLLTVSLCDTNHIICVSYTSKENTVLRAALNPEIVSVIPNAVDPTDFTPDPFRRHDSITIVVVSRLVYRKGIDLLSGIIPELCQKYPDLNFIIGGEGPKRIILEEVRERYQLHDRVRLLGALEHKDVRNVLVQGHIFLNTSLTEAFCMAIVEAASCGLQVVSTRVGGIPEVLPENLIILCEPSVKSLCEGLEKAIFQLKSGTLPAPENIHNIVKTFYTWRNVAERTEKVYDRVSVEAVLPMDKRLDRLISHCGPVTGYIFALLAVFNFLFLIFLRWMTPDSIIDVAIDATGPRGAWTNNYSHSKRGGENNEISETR
UniProt Q7RTV0, whole entry, looked up: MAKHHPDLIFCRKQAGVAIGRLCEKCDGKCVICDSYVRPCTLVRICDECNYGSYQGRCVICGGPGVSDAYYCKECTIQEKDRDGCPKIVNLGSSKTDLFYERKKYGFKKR
UniProt Q8TCG2: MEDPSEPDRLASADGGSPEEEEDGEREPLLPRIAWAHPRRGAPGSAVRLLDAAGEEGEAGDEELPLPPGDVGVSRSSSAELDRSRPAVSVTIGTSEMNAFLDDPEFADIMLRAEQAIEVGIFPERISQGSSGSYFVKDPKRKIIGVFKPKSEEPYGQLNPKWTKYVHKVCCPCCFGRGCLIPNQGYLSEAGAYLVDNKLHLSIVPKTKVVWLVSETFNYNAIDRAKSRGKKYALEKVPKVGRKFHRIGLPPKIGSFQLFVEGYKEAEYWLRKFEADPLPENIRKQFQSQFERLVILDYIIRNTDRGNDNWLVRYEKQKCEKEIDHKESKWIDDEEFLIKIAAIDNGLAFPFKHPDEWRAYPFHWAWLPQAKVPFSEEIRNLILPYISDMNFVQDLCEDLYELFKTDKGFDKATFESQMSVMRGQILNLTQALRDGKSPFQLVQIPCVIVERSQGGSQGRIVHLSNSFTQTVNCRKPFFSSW
UniProt Q16513: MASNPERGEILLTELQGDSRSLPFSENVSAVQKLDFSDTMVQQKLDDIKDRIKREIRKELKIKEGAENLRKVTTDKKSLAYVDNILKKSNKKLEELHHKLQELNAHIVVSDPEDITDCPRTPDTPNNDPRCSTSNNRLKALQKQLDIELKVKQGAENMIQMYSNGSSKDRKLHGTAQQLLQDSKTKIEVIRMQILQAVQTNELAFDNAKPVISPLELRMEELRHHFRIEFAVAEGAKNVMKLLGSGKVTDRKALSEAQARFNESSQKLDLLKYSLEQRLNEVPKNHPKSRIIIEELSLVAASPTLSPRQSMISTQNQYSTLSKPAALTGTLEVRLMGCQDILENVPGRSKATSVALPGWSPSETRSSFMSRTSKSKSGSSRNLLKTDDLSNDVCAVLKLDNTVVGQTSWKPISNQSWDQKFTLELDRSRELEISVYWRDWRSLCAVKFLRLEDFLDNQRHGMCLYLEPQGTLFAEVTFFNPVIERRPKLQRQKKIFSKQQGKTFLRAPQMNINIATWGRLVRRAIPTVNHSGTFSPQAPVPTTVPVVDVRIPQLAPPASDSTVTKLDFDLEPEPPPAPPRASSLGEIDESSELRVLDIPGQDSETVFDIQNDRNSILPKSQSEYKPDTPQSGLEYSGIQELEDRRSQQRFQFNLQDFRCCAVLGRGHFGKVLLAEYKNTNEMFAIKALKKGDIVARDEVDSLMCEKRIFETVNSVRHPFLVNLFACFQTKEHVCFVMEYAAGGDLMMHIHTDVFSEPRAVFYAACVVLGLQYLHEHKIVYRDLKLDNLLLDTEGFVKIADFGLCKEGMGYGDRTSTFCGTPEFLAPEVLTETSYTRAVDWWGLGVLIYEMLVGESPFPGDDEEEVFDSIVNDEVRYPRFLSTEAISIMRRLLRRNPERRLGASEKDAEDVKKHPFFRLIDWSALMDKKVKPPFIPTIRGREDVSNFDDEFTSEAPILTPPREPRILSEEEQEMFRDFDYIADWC
UniProt Q6PCE3: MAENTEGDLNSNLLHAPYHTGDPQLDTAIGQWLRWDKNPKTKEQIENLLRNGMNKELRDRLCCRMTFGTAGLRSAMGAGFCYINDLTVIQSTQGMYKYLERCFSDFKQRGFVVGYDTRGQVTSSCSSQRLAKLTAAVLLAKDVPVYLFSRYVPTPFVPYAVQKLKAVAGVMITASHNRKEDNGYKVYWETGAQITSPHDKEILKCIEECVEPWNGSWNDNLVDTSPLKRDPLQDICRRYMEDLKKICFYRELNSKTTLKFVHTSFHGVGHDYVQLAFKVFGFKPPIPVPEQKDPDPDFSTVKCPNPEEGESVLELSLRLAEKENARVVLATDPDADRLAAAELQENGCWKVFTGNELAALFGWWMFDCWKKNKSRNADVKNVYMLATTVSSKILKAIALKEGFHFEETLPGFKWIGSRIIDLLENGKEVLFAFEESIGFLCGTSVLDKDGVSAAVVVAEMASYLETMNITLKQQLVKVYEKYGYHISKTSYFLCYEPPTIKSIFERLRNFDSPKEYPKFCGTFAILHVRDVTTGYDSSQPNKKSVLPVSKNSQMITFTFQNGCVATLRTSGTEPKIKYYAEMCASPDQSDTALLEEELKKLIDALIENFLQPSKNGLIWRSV
UniProt Q01970, whole entry, looked up: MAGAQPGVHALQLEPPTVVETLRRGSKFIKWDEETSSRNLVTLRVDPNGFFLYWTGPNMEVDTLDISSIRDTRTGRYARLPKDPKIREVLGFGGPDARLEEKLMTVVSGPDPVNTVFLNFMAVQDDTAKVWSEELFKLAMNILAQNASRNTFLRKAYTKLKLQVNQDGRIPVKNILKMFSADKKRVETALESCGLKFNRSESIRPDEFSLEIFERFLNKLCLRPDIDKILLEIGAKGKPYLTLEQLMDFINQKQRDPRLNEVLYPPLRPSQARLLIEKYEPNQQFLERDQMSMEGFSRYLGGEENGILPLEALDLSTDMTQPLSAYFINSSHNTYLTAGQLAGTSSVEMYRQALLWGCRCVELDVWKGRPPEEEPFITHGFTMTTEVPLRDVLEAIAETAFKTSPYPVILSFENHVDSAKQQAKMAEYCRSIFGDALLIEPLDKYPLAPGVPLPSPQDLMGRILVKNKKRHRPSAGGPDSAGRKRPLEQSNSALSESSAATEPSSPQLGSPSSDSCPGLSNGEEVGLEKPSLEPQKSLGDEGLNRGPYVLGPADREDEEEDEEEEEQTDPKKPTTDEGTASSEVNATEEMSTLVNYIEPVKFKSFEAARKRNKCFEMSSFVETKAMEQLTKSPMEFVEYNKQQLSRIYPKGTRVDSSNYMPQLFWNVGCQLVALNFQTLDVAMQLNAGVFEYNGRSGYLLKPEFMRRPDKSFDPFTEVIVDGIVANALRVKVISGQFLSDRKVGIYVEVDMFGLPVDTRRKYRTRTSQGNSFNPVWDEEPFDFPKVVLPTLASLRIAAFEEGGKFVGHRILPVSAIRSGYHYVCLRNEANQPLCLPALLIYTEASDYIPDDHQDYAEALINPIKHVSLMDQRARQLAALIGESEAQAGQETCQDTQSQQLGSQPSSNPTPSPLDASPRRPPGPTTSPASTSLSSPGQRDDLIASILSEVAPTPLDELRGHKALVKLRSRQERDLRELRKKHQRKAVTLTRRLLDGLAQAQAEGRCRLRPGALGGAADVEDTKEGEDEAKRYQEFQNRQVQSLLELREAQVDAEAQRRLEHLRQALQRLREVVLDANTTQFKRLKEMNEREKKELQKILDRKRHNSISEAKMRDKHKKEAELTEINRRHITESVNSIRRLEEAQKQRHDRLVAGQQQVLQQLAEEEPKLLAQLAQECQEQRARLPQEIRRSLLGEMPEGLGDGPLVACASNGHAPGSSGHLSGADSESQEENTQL
UniProt Q86T03: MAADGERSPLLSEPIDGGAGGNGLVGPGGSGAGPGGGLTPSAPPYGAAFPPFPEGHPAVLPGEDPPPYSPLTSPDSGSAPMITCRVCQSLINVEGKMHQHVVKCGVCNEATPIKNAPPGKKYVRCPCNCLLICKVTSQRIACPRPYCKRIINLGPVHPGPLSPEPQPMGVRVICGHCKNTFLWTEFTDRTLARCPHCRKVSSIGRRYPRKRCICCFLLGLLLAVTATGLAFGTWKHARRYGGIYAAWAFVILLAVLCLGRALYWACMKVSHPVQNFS

Assays:
Test in all cases: log2 fold change, soluble protein after heating vs DMSO (PISA); higher = thermal stabilisation; K562 lysate, 10 uM; active = over 0.2 and 3.5 SD of the protein, either way, in both replicates (recomputed)
[1] = compound: C#Cc1cccc(Nc2ncnc3cc(OCCOC)c(OCCOC)cc23)c1 [erlotinib]
Summary of the method: (§1)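 K562 pellets were dounce-homogenised in PBS pH 7.4 with 1 mM MgCl2, and the crude extract at 1 mg/mL protein was treated with 10 μM compound for 30 min. Aliquots were heated for 3 min across 48°C-58°C, pooled, and brought to 0.5% NP-40 at 4°C; soluble protein was the supernatant after 21,000xg for 90 min. Soluble protein was quantified by TMTpro 16plex LC-MS/MS with channel sums equalised, and reported as log2 fold change in thermal stability against DMSO controls, with values from duplicates.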

[2] = compound: C/C(=N\NC(=O)C1=CC(=CC=C1)S(=O)(=O)N2CCOCC2)/C3=C(C=CC(=C3)Cl)O
Summary of the method: as §1

[3] = compound: C1=CC(=CC=C1C2=NC3=C(N2)C=C(C=C3)C(=O)N)OC4=CC=C(C=C4)Cl
Summary of the method: as §1

[4] = compound: C1=CC2=C(C=CC(=C2)/C=C\3/C(=O)NC(=NCC4=CC=CS4)S3)N=C1
Summary of the method: as §1

[5] = compound: C1=CC2=NC=CN=C2C=C1/C=C/3\C(=O)NC(=O)S3
Summary of the method: as §1

[6] = compound: C1=CC=C(C=C1)C2=NC(=C(N2)C3=CC=NC=C3)C4=CC(=C(C=C4)Cl)O
Summary of the method: as §1

[7] = compound: C1=CC=C2C(=C1)C3=NNC4=CC=CC(=C43)C2=O
Summary of the method: as §1

[8] = compound: C1CCN(C1)C(=O)NC2=CC=CC(=C2)NC3=NC=C(C(=N3)NCCC4=CN=CN4)Br
Summary of the method: as §1

[9] = compound: C1CN(CCC1(CC2=CC=C(C=C2)Cl)N)C3=NC=NC4=C3C=CN4
Summary of the method: as §1

[10] = compound: C1COCCN1CCN2C3=CC=CC=C3N=C2NC(=O)C4=CC(=CC=C4)[N+](=O)[O-] [IRAK-1-4 Inhibitor I]
Summary of the method: as §1

[11] = compound: C=CC(=O)N1CCC[C@@H](n2nc(-c3ccc(Oc4ccccc4)cc3)c3c(N)ncnc32)C1 [ibrutinib]
Summary of the method: as §1

[12] = compound: CC(=O)c1cnc2ccc(-c3cc(Cl)c(O)c(Cl)c3)nc2c1N[C@H]1CC[C@H](CN(C)C)CC1
Summary of the method: as §1

[13] = compound: CC(C)(C)Cn1c(N)nc2ccc(-c3[nH]c(C(C)(C)C)nc3-c3ccc(F)cc3)nc21 [ralimetinib]
Summary of the method: as §1

[14] = compound: CC(C)(O)CC(=O)NCCn1ccc2ncnc(Nc3ccc(Oc4cccc(C(F)(F)F)c4)c(Cl)c3)c21
Summary of the method: as §1

[15] = compound: CC(C)C1=C2N=C(C=C(N2N=C1)NCC3=CC=CC=C3)NCCCCCCN
Summary of the method: as §1

[16] = compound: CC1=C(C(CC(=O)N1)C2=CC=C(C=C2)C(F)(F)F)C(=O)NC3=C(C=C4C(=C3)C=NN4)F
Summary of the method: as §1

[17] = compound: CC1=C(C2=C(C=C1)C(=O)C3=CC=CC=C3N2CCCN)C
Summary of the method: as §1

[18] = compound: CC1=C(C=C(C=C1)NC(=O)C2=CC(=CC=C2)C(C)(C)C#N)NC3=CC4=C(C=C3)N=CN(C4=O)C
Summary of the method: as §1

[19] = compound: CC1=C(C=C(C=C1)NC(=O)C2=CC(=CC=C2)N(C)C)NC(=O)C3=CC=C(C=C3)O
Summary of the method: as §1

[20] = compound: CC1=CC=C(C=C1)SC2=C3C=C(SC3=CN=C2)C(=O)N
Summary of the method: as §1

Measured: log2 fold change

PKNOX1 (UniProt P55347)
inactive: [1] 0.047 | [2] -0.078 | [3] 0.041 | [4] 0.07 | [5] -0.055 | [6] 0.078 | [7] -0.016 | [8] -0.036 | [9] 0.021 | [10] 0.014 | [11] -0.079 | [12] -0.021 | [13] -0.015 | [14] 0.029 | [15] -0.023 | [16] 0.149 | [17] -0.042 | [18] 0.078 | [19] -0.056 | [20] -0.037

PLEC (UniProt Q15149)
inactive: [1] 0.008 | [2] 0 | [3] -0.027 | [4] -0.027 | [5] -0.025 | [6] -0.051 | [7] -0.048 | [8] 0.006 | [9] -0.002 | [10] -0.031 | [11] 0.005 | [12] 0.001 | [13] 0.044 | [14] 0.02 | [15] -0.001 | [16] 0.012 | [17] 0.104 | [18] -0.023 | [19] 0.051 | [20] -0.008

PKM (UniProt P14618)
inactive: [1] -0.012 | [2] -0.058 | [3] 0.034 | [4] -0.002 | [5] 0.004 | [6] 0.028 | [7] -0.022 | [8] -0.015 | [9] 0 | [10] -0.003 | [12] 0.008 | [13] -0.01 | [14] -0.013 | [15] 0.012 | [16] -0.027 | [17] 0.048 | [18] 0.014 | [19] -0.002 | [20] 0.014

PIK3CD (UniProt O00329)
inactive: [1] -0.014 | [2] -0.162 | [3] -0.095 | [4] 0.034 | [5] 0.091 | [6] -0.031 | [7] 0.098 | [10] 0.109 | [11] -0.14 | [12] 0.222 | [13] -0.017 | [14] -0.123 | [15] -0.12 | [16] 0.021 | [17] -0.032 | [18] 0.04 | [19] 0.098 | [20] -0.056

PLCL1 (UniProt Q15111)
inactive: [1] 0.043 | [2] -0.029 | [3] 0.013 | [4] -0.069 | [5] -0.044 | [6] -0.001 | [7] -0.074 | [8] -0.011 | [9] 0.05 | [10] 0.073 | [11] 0.027 | [12] -0.037 | [13] -0.015 | [14] -0.062 | [15] 0.001 | [16] 0.018 | [17] -0.087 | [18] 0.028 | [19] 0.041 | [20] 0.002

Copied from above (three entries):
PKNOX1 (UniProt P55347)
inactive: [1] 0.047 | [2] -0.078 | [3] 0.041 | [4] 0.07 | [5] -0.055 | [6] 0.078 | [7] -0.016 | [8] -0.036 | [9] 0.021 | [10] 0.014 | [11] -0.079 | [12] -0.021 | [13] -0.015 | [14] 0.029 | [15] -0.023 | [16] 0.149 | [17] -0.042 | [18] 0.078 | [19] -0.056 | [20] -0.037

PLEC (UniProt Q15149)
inactive: [1] 0.008 | [2] 0 | [3] -0.027 | [4] -0.027 | [5] -0.025 | [6] -0.051 | [7] -0.048 | [8] 0.006 | [9] -0.002 | [10] -0.031 | [11] 0.005 | [12] 0.001 | [13] 0.044 | [14] 0.02 | [15] -0.001 | [16] 0.012 | [17] 0.104 | [18] -0.023 | [19] 0.051 | [20] -0.008

PKM (UniProt P14618)
inactive: [1] -0.012 | [2] -0.058 | [3] 0.034 | [4] -0.002 | [5] 0.004 | [6] 0.028 | [7] -0.022 | [8] -0.015 | [9] 0 | [10] -0.003 | [12] 0.008 | [13] -0.01 | [14] -0.013 | [15] 0.012 | [16] -0.027 | [17] 0.048 | [18] 0.014 | [19] -0.002 | [20] 0.014

Continued:

PIGA (UniProt P37287)
inactive: [1] 0.001 | [2] 0.102 | [3] -0.124 | [4] 0.021 | [5] -0.003 | [6] 0.055 | [7] -0.052 | [8] -0.041 | [9] 0.023 | [10] 0.022 | [11] 0.067 | [12] 0.07 | [13] 0.053 | [14] -0.013 | [15] 0.043 | [17] -0.016 | [18] 0.007 | [19] -0.028 | [20] 0.005

PLCH1 (UniProt Q4KWH8)
inactive: [1] -0.022 | [2] 0.065 | [3] 0.006 | [4] 0.062 | [5] 0.044 | [6] 0.031 | [7] 0.032 | [8] -0.004 | [9] -0.13 | [10] -0.041 | [11] -0.001 | [12] -0.002 | [13] 0 | [14] 0.011 | [15] -0.056 | [17] 0.071 | [18] -0.011 | [19] 0.064 | [20] 0.027

PHF5A (UniProt Q7RTV0)
inactive: [1] -0.02 | [2] 0.01 | [3] 0.054 | [4] -0.03 | [5] -0.026 | [6] 0.026 | [7] 0.045 | [8] 0.01 | [9] 0.037 | [10] -0.014 | [11] -0.044 | [12] 0.002 | [13] -0.008 | [14] 0.018 | [15] -0.012 | [16] -0.021 | [17] -0.048 | [18] 0.031 | [19] 0.02 | [20] -0.007

PI4K2B (UniProt Q8TCG2)
inactive: [1] 0.023 | [2] 0.035 | [3] -0.041 | [4] -0.089 | [5] -0.002 | [6] -0.047 | [7] 0.009 | [8] -0.07 | [9] 0.136 | [10] 0.026 | [11] -0.028 | [12] 0.04 | [13] 0.103 | [14] 0.069 | [15] -0.063 | [16] -0.075 | [17] -0.005 | [18] -0.082 | [19] 0.001 | [20] 0.005

PLA2G15 (UniProt Q8NCC3)
inactive: [1] 0.004 | [2] -0.066 | [3] -0.022 | [4] 0.021 | [5] -0.005 | [6] 0.013 | [7] 0.019 | [8] 0.036 | [9] -0.067 | [10] 0.005 | [11] 0.051 | [12] 0.013 | [13] 0.005 | [14] 0.052 | [15] -0.028 | [16] 0.001 | [17] -0.001 | [18] 0.036 | [19] 0.027 | [20] -0.01

PIGM (UniProt Q9H3S5)
inactive: [1] 0.378 | [2] -0.25 | [3] 0.048 | [4] 0.064 | [5] 0.034 | [6] 0.33 | [7] -0.032 | [8] -0.022 | [9] 0.07 | [10] -0.072 | [11] 0.116 | [12] 0.098 | [13] 0.051 | [14] -0.132 | [15] 0.028 | [18] 0.002 | [19] 0.082 | [20] -0.005

PKN2 (UniProt Q16513)
inactive: [1] -0.024 | [2] 0.009 | [3] 0.022 | [4] -0.115 | [5] -0.066 | [6] 0.021 | [7] -0.115 | [8] -0.13 | [9] -0.119 | [10] -0.04 | [11] -0.003 | [12] -0.074 | [13] 0.036 | [14] -0.007 | [15] -0.009 | [16] 0.027 | [17] 0.018 | [18] 0.038 | [19] 0.016 | [20] 0.013

PHKA2 (UniProt P46019)
inactive: [1] 0.048 | [2] -0.051 | [3] 0.032 | [4] 0.052 | [5] 0.044 | [6] -0.058 | [7] 0.012 | [8] 0.027 | [9] 0.033 | [10] 0.03 | [11] -0.032 | [12] 0.095 | [13] -0.022 | [14] -0.097 | [15] -0.016 | [16] -0.03 | [17] -0.076 | [18] 0.007 | [19] 0.013 | [20] -0.015

PGM2L1 (UniProt Q6PCE3)
inactive: [1] -0.042 | [2] -0.027 | [3] 0.022 | [4] 0.021 | [5] -0.017 | [6] 0.018 | [7] -0.003 | [8] 0.002 | [9] 0.034 | [10] 0 | [11] -0.025 | [12] -0.025 | [13] -0.003 | [14] -0.05 | [15] -0.036 | [16] 0 | [17] -0.034 | [18] 0.001 | [19] 0.016 | [20] -0.002

PLCB3 (UniProt Q01970)
inactive: [1] -0.023 | [2] 0.048 | [3] -0.012 | [4] -0.001 | [5] -0.021 | [6] -0.013 | [7] -0.021 | [8] -0.025 | [9] 0.02 | [10] -0.03 | [11] 0.011 | [12] 0.013 | [13] -0.01 | [14] -0.02 | [15] -0.01 | [16] -0.02 | [17] -0.002 | [18] -0.007 | [19] 0.007 | [20] 0.029

PIP4P1 isoform 2 (UniProt Q86T03)
inactive: [1] 0.008 | [2] -0.051 | [3] 0.084 | [4] 0.042 | [5] -0.033 | [6] 0.005 | [7] -0.038 | [8] -0.005 | [9] -0.033 | [10] 0.025 | [11] -0.036 | [12] 0.008 | [13] -0.016 | [14] -0.026 | [15] -0.015 | [16] -0.012 | [17] 0.049 | [18] 0.054 | [19] 0.042 | [20] -0.024
